Source: the supplement of paper PMC3334620
Over roughly 33,000 sequences, “E-score (-0.5 to 0.5)” has its median near -0.0014; the highest 2% begin near 0.25. Some of the results follow.

What follows are sequences tested against T1, Cad1 (UniProt P24813) (assay: PBM E-score (8-mer binding enrichment) (E-score (-0.5 to 0.5)); higher = stronger / more preferred TF binding). Conditions: protein concentration: 100 nM; construct: GST-full length.
T1 sequence: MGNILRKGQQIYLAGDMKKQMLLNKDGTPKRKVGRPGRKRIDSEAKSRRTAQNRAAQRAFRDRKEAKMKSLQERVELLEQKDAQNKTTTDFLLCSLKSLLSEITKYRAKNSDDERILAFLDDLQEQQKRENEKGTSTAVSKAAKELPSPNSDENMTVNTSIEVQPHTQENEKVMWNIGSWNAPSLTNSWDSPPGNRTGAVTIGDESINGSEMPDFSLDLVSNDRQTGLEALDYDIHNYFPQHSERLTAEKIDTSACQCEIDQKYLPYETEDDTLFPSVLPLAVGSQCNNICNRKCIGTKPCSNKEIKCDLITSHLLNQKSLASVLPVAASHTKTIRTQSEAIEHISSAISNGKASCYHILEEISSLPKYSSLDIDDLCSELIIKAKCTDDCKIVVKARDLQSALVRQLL
Outline: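 E-scores (a modified Wilcoxon-Mann-Whitney statistic) were assigned by the Universal PBM Analysis Suite to every ungapped eight-base word pooled with its reverse complement. The input came from universal all-10-mer Agilent arrays made double-stranded by primer extension and probed with GST-tagged yeast transcription factors at about 100-200 nM. Fluorescent anti-GST detected bound protein, and masliner normalised the scans.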
ACAAATGC was tested, and the “PBM E-score” value was 0.255.
For AGAAAACA, the “PBM E-score” value was 0.219.
With TAGCCGCA the “PBM E-score” value was -0.215.
For GTCATGGA, the “PBM E-score” value was -0.17.
GACGGTAA was tested, and the “PBM E-score” value was 0.0171.
In the case of AGACGTCG, the “PBM E-score” value is reported as -0.0866.
For CACCTATA, the “PBM E-score” value was -0.124.
For ATCGGCCG, the “PBM E-score” value was -0.0628.
With CTCCAATA the “PBM E-score” value was 0.142.
CAATTAGG was tested, and the “PBM E-score” value was 0.0689.
For ACAAAGGA, the “PBM E-score” value was 0.0401.
With ATGATTAA the “PBM E-score” value was 0.32.
TCACACGA was tested, and the “PBM E-score” value was 0.123.
For ACAGACTG, the “PBM E-score” value was -0.00999.
For ACATTCGT, the “PBM E-score” value was 0.0444.
With AGTATCGG the “PBM E-score” value was 0.0469.
In the case of GAAGCGAA, the “PBM E-score” value is reported as 0.00791.
With TACACTGA the “PBM E-score” value was 0.0229.
In the case of GCCCTGAC, the “PBM E-score” value is reported as -0.0335.
AGAACGTC was tested, and the “PBM E-score” value was -0.00781.
GATTCTCA was tested, and the “PBM E-score” value was 0.0146.
With AACGAGAT the “PBM E-score” value was 0.0437.
AGGCCCTC was tested, and the “PBM E-score” value was -0.145.
CCAAGTAC was tested, and the “PBM E-score” value was -0.172.
For AGGCATCG, the “PBM E-score” value was -0.0505.
ACCTGCGC was tested, and the “PBM E-score” value was 0.0231.
With AGGGACGC the “PBM E-score” value was -0.036.
In the case of GAACGTAA, the “PBM E-score” value is reported as 0.225.
In the case of CCCTAACA, the “PBM E-score” value is reported as 0.142.
For AAGCTGTC, the “PBM E-score” value was -0.0288.
GAGTCTGC was tested, and the “PBM E-score” value was -0.0992.
GTACTGGA was tested, and the “PBM E-score” value was -0.0318.
In the case of ACGTTGGA, the “PBM E-score” value is reported as -0.0111.
In the case of AGTCCCGC, the “PBM E-score” value is reported as -0.261.
In the case of CAGCCTTC, the “PBM E-score” value is reported as -0.132.
AACAGATT was tested, and the “PBM E-score” value was -0.0147.
With CGGGTTTC the “PBM E-score” value was 0.179.
In the case of AAGCCGTG, the “PBM E-score” value is reported as 0.0294.
For AGGCCTAC, the “PBM E-score” value was 0.178.
With ATATCCTG the “PBM E-score” value was -0.0172.
CGGTTAAC was tested, and the “PBM E-score” value was -0.12.
CGGTATAA was tested, and the “PBM E-score” value was 0.0204.
In the case of TCCCAGCA, the “PBM E-score” value is reported as -0.0358.
CATTGTGG was tested, and the “PBM E-score” value was -0.118.
With ATTCATTA the “PBM E-score” value was 0.0884.
For CATCGTTA, the “PBM E-score” value was -0.0394.
With GACCTCAC the “PBM E-score” value was -0.0522.
AGACTGGC was tested, and the “PBM E-score” value was -0.0939.
CTGTTGCA was tested, and the “PBM E-score” value was 0.152.
GCTATCTA was tested, and the “PBM E-score” value was -0.0769.
ACCTCTTC was tested, and the “PBM E-score” value was -0.0368.
AAAACGCC was tested, and the “PBM E-score” value was 0.139.
In the case of GAGGGCCA, the “PBM E-score” value is reported as -0.149.
For CGTTAAGC, the “PBM E-score” value was 0.107.
In the case of GGCTTACC, the “PBM E-score” value is reported as -0.0175.
With CTTCACTC the “PBM E-score” value was 0.0104.
In the case of AAAACACT, the “PBM E-score” value is reported as -0.0464.
With CCACCCCA the “PBM E-score” value was -0.122.
For CGGACGCA, the “PBM E-score” value was 0.0152.
With ATATTACG the “PBM E-score” value was 0.24.
With CGCCTGAG the “PBM E-score” value was 0.00605.
For GAAATAAA, the “PBM E-score” value was 0.0915.
In the case of ACACACCT, the “PBM E-score” value is reported as 0.167.
In the case of CGACCGCG, the “PBM E-score” value is reported as 0.168.
AATGGTAA was tested, and the “PBM E-score” value was 0.195.
With CAAACTGA the “PBM E-score” value was 0.0338.
In the case of CATAAGTA, the “PBM E-score” value is reported as -0.174.
ACTATGAT was tested, and the “PBM E-score” value was 0.0444.
With ACATTAGC the “PBM E-score” value was 0.0121.
With CATTAGAA the “PBM E-score” value was 0.11.
With ACTTACTC the “PBM E-score” value was -0.00858.
With ATGGGACA the “PBM E-score” value was -0.0588.
GCACGGCC was tested, and the “PBM E-score” value was 0.0311.
ACCACGAG was tested, and the “PBM E-score” value was 0.0195.
With AGCTTGTC the “PBM E-score” value was -0.0309.
For AATGATCG, the “PBM E-score” value was -0.151.
ATTTATAG was tested, and the “PBM E-score” value was -0.0336.
With CGCCTCGC the “PBM E-score” value was -0.112.
For CGCCCGTA, the “PBM E-score” value was -0.182.
AATTAAGA was tested, and the “PBM E-score” value was 0.104.
ACTAAAAA was tested, and the “PBM E-score” value was 0.107.
GCCTTTTA was tested, and the “PBM E-score” value was -0.116.
With GATCTTCA the “PBM E-score” value was 0.0512.
With CAATGACA the “PBM E-score” value was 0.0686.
With CTACAGCA the “PBM E-score” value was 0.0454.
GAGACCAA was tested, and the “PBM E-score” value was 0.0177.
In the case of ACTAGTAC, the “PBM E-score” value is reported as 0.0653.
With ACTCCCAA the “PBM E-score” value was -0.0495.
CTCGAAAG was tested, and the “PBM E-score” value was -0.0303.
With CTAGACAG the “PBM E-score” value was 0.0439.
CGTTCTAG was tested, and the “PBM E-score” value was 0.0132.
CCCTAATA was tested, and the “PBM E-score” value was 0.08.
With GCTGTTGA the “PBM E-score” value was 0.215.
With GCATTCAA the “PBM E-score” value was 0.0687.
